Experimental data published in PubChem BioAssay AID2685 (National Center for Advancing Translational Sciences (NCATS), 2010).
Some of the results follow. The main result of the screen is listed elsewhere. These columns were measured beside it and carry no call. Most of these compounds were active or inconclusive in the main read-out, so they are no random draw. The note in brackets gives the kind of curve behind each potency; many fits are weak.

Experiment: qHTS Assay for Lipid Storage Modulators in Drosophila S3 Cells;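 as to cell number change: cells counted by Cell Tracker Red CMTPX staining in the red channel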
Settings: BODIPY lipid droplet fluorescence, 18-24 h; for cell number change: measured here: cell count max response, cells fed with added oleic acid
In short: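 Drosophila S3 cells loaded with oleic acid (400 uM, as added) and compounds at several concentrations; lipid droplets imaged by 488-nm laser-scanning cytometry, 500–530 nm intensity and object ratio to cell channel. Percent activity normalized to 20 uM Triacsin C.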

[1] = measured here: lipid fluorescence (Fed channel) AC50, cells fed with added oleic acid
[2] = measured here: cell number channel AC50, cells fed with added oleic acid

SMILES: CC(=O)OC(C)(C)C#CCN1CCCC1
- AC50 [1]: 20.6 µM [falling, single point]

SMILES: Cc1cc(NC(=O)C(C)C)ncc1NC(=O)c1ccccn1
- cell number change: 7.25%
- AC50 [2]: 2.06 µM [falling, partial curve]

SMILES: COc1cc(OC)cc(N2CCN(S(=O)(=O)c3ccc(-n4cnnn4)cc3)CC2)c1
- cell number change: 19.7%

SMILES: Cc1cc(Cl)ccc1NC(=S)N1CCC(C(N)=O)(N2CCCCC2)CC1
- cell number change: 11.7%
- AC50 [1]: 0.00461 µM [rising, full curve, poor fit]

SMILES: Nc1ccccc1C(=O)NCc1ccccc1
- cell number change: -36.5%
- AC50 [2]: 29.1 µM [falling, single point]
- AC50 [1]: 29.1 µM [falling, single point]

SMILES: COc1ccc(C(=O)N/N=C/c2ccc(OC)c(COc3ccc(F)cc3)c2)cc1
- AC50 [1]: 8.91 µM [falling, partial curve, poor fit]

SMILES: CCCCSc1nc(C)cc(SCC(=O)N/N=C/c2cccc(OC)c2O)n1
- cell number change: -1.3%
- AC50 [1]: 23.1 µM [falling, single point]

SMILES: CCCc1cc(C(=O)Nc2ccc(Cl)cn2)cs1
- cell number change: 2.48%
- AC50 [1]: 29.1 µM [falling, single point]

SMILES: CCCCN(C(=O)C1CSC2(C)CCC(=O)N12)c1c(N)n(CC(C)C)c(=O)[nH]c1=O (stereo not drawn)
- cell number change: 7.65%
- AC50 [1]: 7.31 µM [rising, partial curve]

SMILES: Nn1c(COc2ccccc2F)nnc1SCC(=O)NC1CCCC1
- cell number change: -13.8%
- AC50 [1]: 29.1 µM [rising, single point]

SMILES: CCCCN(Cc1ccccc1)C(=O)CCN1C(=O)C2C3C=CC(C3)C2C1=O (stereo not drawn)
- AC50 [1]: 0.13 µM [rising, full curve, poor fit]

SMILES: O=C1CCC(C(=O)OCC(=O)c2ccccc2)N1 (stereo not drawn)
- cell number change: -33.8%
- AC50 [2]: 0.251 µM [falling, full curve, poor fit]
- AC50 [1]: 0.282 µM [falling, full curve, poor fit]

SMILES: O=[N+]([O-])c1cc(C(F)(F)F)cc([N+](=O)[O-])c1NCCNC(=S)Nc1ccc(Cl)c(Cl)c1
- cell number change: -71.1%
- AC50 [2]: 32.6 µM [falling, single point]
- AC50 [1]: 32.6 µM [falling, single point]

SMILES: COc1cccc(CNC(=O)C2=Cc3cccc(OC)c3OC2)c1
- cell number change: -20.1%
- AC50 [2]: 0.651 µM [falling, full curve, poor fit]

SMILES: COCCN(C(=O)COC(=O)Cc1coc2cc3c(cc12)CCC3)c1c(N)n(Cc2ccccc2)c(=O)[nH]c1=O
- cell number change: 41.5%
- AC50 [2]: 18.4 µM [rising, single point]

SMILES: CCOc1ccc(NC(=O)CNC(=O)c2ccc([N+](=O)[O-])cc2)cc1
- AC50 [2]: 2.06 µM [rising, single point]

SMILES: c1ccc(-c2nnc(N3CCN(c4ccccn4)CC3)c3ccccc23)cc1
- cell number change: 268%
- AC50 [2]: 1.64 µM [rising, full curve]
- AC50 [1]: 1.84 µM [rising, full curve]

SMILES: Cc1cc2ccccn2c1C(=O)c1cc([N+](=O)[O-])cc([N+](=O)[O-])c1
- cell number change: -129%
- AC50 [2]: 29.1 µM [falling, partial curve, poor fit]
- AC50 [1]: 29.1 µM [falling, partial curve]

SMILES: Nc1cc(C(=O)OCC(=O)N2CCOCC2)ccc1Cl
- AC50 [2]: 0.13 µM [rising, full curve, poor fit]
- AC50 [1]: 2.91 µM [falling, single point]

SMILES: COc1ccc(N2CCN(c3oc(-c4ccco4)nc3C#N)CC2)cc1
- cell number change: -29.4%
- AC50 [1]: 0.731 µM [falling, single point]

SMILES: c1ccc(-c2csc(N3CCOCC3)n2)cc1
- cell number change: -18.8%
- AC50 [2]: 0.517 µM [falling, full curve, poor fit]
- AC50 [1]: 6.51 µM [falling, single point]

SMILES: COc1ccccc1CC(=O)Nc1cccc2ccccc12
- cell number change: -9.71%
- AC50 [1]: 3.26 µM [rising, full curve, poor fit]

SMILES: COc1ccc(CCN(C)C(=S)NC(=O)c2ccc(F)cc2Cl)cc1OC
- AC50 [1]: 4.11 µM [falling, single point]

SMILES: COc1ccc(-c2nnc(C)c3nocc23)cc1
- cell number change: 37.8%
- AC50 [2]: 29.1 µM [rising, single point]

SMILES: O=C(CSc1ccccn1)Nc1cccc(S(=O)(=O)N2CCCC2)c1
- cell number change: -28.1%
- AC50 [1]: 0.00517 µM [falling, full curve, poor fit]

SMILES: C=CCSc1nnc(-c2ccc([N+](=O)[O-])cc2)o1
- cell number change: 16.5%
- AC50 [1]: 4.61 µM [rising, single point]

SMILES: COc1cc([N+](=O)[O-])ccc1NC(=S)N1CCOCC1
- cell number change: 36.9%
- AC50 [2]: 25.1 µM [rising, partial curve, poor fit]
- AC50 [1]: 3.16 µM [rising, partial curve, poor fit]

SMILES: CC(C)C(=O)NC(c1ccccc1)c1cc([N+](=O)[O-])c2cccnc2c1O (stereo not drawn)
- cell number change: -1.4%
- AC50 [1]: 4.61 µM [falling, single point]

SMILES: CN(C)CCNC(=O)C(=O)NCC1OCCN1S(=O)(=O)c1cc(F)ccc1F (stereo not drawn)
- cell number change: 18.4%
- AC50 [1]: 29.1 µM [falling, single point]

SMILES: COc1cccc(/C=N/Nc2ncnc(N)c2[N+](=O)[O-])c1OC
- cell number change: -0.697%
- AC50 [1]: 6.51 µM [falling, single point]

SMILES: COc1ccc(N(C(=O)c2cccnc2)S(=O)(=O)c2cccs2)cc1
- cell number change: -5.41%
- AC50 [2]: 0.58 µM [falling, single point]

SMILES: CC(C)c1nc(SCC(=O)Nc2ccc([N+](=O)[O-])cc2Br)n[nH]1
- cell number change: 30.7%

SMILES: O=C(COC(=O)/C=C/c1ccco1)NCc1ccc(Cl)cc1
- cell number change: -14.4%
- AC50 [1]: 18.4 µM [rising, single point]

SMILES: COCCCn1nnnc1SCC(=O)Nc1nc2ccccc2s1
- cell number change: 2.56%

SMILES: COc1ccc(CNC(=O)c2ccc(-c3ccccc3)cc2)cc1OC
- cell number change: 12%
- AC50 [1]: 4.61 µM [rising, full curve, poor fit]

SMILES: COc1ccc(C(=O)Nc2ccccc2SCc2cc(=O)n3nc(C)sc3n2)cc1OC
- cell number change: -1.83%

SMILES: C=CCSc1nnc(NC(=O)CCNC(=O)c2ccco2)s1
- cell number change: 14.5%
- AC50 [1]: 0.562 µM [falling, single point]

SMILES: CCOC(=O)C(=O)Nc1ccccc1C(=O)NC(C)C
- cell number change: -26.5%
- AC50 [1]: 4.11 µM [falling, full curve, poor fit]

SMILES: CC(C)NC(=O)C1CCN(C2CCN(C(=O)c3scc4c3CCCC4)CC2)CC1
- cell number change: -17.4%
- AC50 [1]: 23.1 µM [falling, partial curve]

SMILES: CN(CC1CCCO1)S(=O)(=O)c1ccc(C(=O)Nc2nc3cc4c(cc3s2)OCO4)cc1 (stereo not drawn)
- cell number change: 2.59%

SMILES: NNC(=O)CSc1c(-c2cccs2)[nH]c2ccccc12
- cell number change: 2.38%
- AC50 [1]: 14.6 µM [rising, partial curve]

SMILES: Cc1cc2c(c(=O)o1)C(C(C)C)C(C#N)=C(N)O2 (stereo not drawn)
- cell number change: 1.67%

SMILES: COc1ccc(/C=C2/SC(=S)N(n3c(C)ccc3C)C2=O)cc1
- cell number change: 6.48%
- AC50 [1]: 16.4 µM [rising, single point]

SMILES: Nc1c(Cl)ncnc1N/N=C/c1ccc2ccccc2n1
- cell number change: -33.4%
- AC50 [2]: 20.6 µM [falling, single point]
- AC50 [1]: 29.1 µM [falling, single point]

SMILES: CCCCN(CC)Cc1ccc(CNC(=O)Nc2ccccc2)o1
- AC50 [1]: 18.4 µM [falling, single point]

SMILES: O=C(Nc1ccc(Cl)cn1)c1ccc(COCC(F)(F)C(F)F)o1
- AC50 [1]: 5.8 µM [falling, partial curve]

SMILES: Cc1nnc2nc(-c3ccccc3)nc(-c3ccccc3)n12
- cell number change: 12.2%
- AC50 [2]: 0.0058 µM [rising, full curve, poor fit]
- AC50 [1]: 0.0291 µM [rising, full curve]

SMILES: O=C(COC(=O)CNC(=O)c1ccc(Cl)c([N+](=O)[O-])c1)NNC(=O)c1cccs1
- cell number change: -52.9%
- AC50 [2]: 29.1 µM [falling, single point]

SMILES: COc1ccccc1-n1c(SCC(=O)N2CCc3ccccc32)nc2c(c1=O)SCC2
- cell number change: 19.6%
- AC50 [1]: 6.51 µM [rising, single point]

SMILES: N#Cc1c(SCC(=O)Nc2nccs2)nc2c(c1-c1ccco1)CCCC2
- cell number change: -2.07%
- AC50 [1]: 0.164 µM [rising, full curve, poor fit]

SMILES: COc1ccc(C2=NOC(C(=O)Nc3cccc(O)c3)C2)cc1 (stereo not drawn)
- cell number change: -31.5%
- AC50 [2]: 16.4 µM [falling, single point]

SMILES: CCOC(=O)N1CCN(Cc2cc(=O)oc3ccc(Cl)cc23)CC1
- AC50 [2]: 6.51 µM [rising, single point]

SMILES: COC(=O)C1=C(Nc2ccccc2NC(=O)c2ccccc2C(=O)O)CSC1
- AC50 [2]: 0.146 µM [rising, full curve]

SMILES: O=C(c1cc2c(=O)n3ccccc3nc2s1)N1CCN(c2cccc(Cl)c2)CC1
- cell number change: -15.8%

SMILES: O=C(Cn1c(-c2cscn2)nc2ccccc21)Nc1cc(F)ccc1F
- cell number change: -5.94%
- AC50 [2]: 4.61 µM [rising, partial curve, poor fit]
- AC50 [1]: 4.61 µM [rising, partial curve]

SMILES: Cc1[nH]c2ccccc2c1/C=C(\C#N)S(=O)(=O)c1ccccc1
- AC50 [2]: 0.82 µM [rising, full curve]

SMILES: Cc1c(C(=O)OCCOC(C)C)[nH]c2c1C(=O)CC(C)(C)C2
- AC50 [2]: 4.61 µM [rising, single point]
- AC50 [1]: 3.66 µM [rising, partial curve]

SMILES: O=C(Nc1ccccc1)Oc1cccc(Br)c1
- cell number change: -15.7%

SMILES: CC(=O)C1=C(O)C=C(c2ccco2)CC1c1ccco1 (stereo not drawn)
- cell number change: -13.1%
- AC50 [1]: 0.116 µM [falling, full curve, poor fit]

SMILES: COCC(=O)N1CCCC(C(=O)c2ccc(C(F)(F)F)cc2)C1 (stereo not drawn)
- cell number change: 2.37%
- AC50 [2]: 0.731 µM [rising, single point]
- AC50 [1]: 6.51 µM [rising, single point]
